Test results: PubChem BioAssay AID624297 (National Center for Advancing Translational Sciences (NCATS), 2012)
Several values for one entry are separate records, joined by “and”; a condition that tells them apart may be missing. Equal values may be shown once. The campaign covered roughly 340,000 compounds. About 6,200 (1.8%) were called active. Inconclusive results, whose numbers are uncertain, are shown with a selection of clear calls. The call rests on the fitted dose curve; in most records, active means well fitted activation curve with a large enough effect; inconclusive means small, poorly fitted or top-dose-only effect; inactive means no such curve, though single readings can be large or run the other way. Potencies beside an inconclusive call are fits to weak or partial responses and may not hold up.

Test: A quantitative high throughput screen for small molecules that induce DNA re-replication in SW480 colon adenocarcinoma cells. Further: nearly all actives have a fitted effect of over 55% in size. On re-replication activation: % of control where 0% means no effect.
Details: Hoechst DNA content imaging, 48 h; re-replication activation: at 46.1 µM (top of the series) unless noted
Method in brief: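 First, 250 cells per well were seeded. Next, compound or vehicle (23 nL) was pinned in, plates sat 48 hr at 37 C. Finally Hoechst was added for 40 min before fluorescence scanning.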
Potency means the concentration at half of the fitted maximal effect.

Structure (SMILES) | Potency | re-replication activation
CC(C)C(OC(=O)c1ccccc1)c1nccc2ccccc12 (stereo not given) | inactive | –
CCN(CC(=O)NCc1cccs1)S(=O)(=O)c1cc(NC(C)=O)ccc1OC | inconclusive: 16.4 µM [activator, partial curve, poor fit] | –
CCOCCCn1c(=N)c(C(N)=S)cc2c(=O)n3cccc(C)c3nc21 | inconclusive: 5.8 µM [activator, full curve] | –
CCOc1ccc(CCNC(=O)c2cc3sccc3n2C)cc1OCC | inactive | –
CCOc1ccc(S(=O)(=O)N2CCOCC2)cc1NC(=O)CSC(=S)N1CCCC1 | inactive | –
O=C(O)Cc1ccc(NC(=O)Cc2ccc3ccccc3c2)cc1 | inactive | –
Cc1[nH][nH]c(=O)c1N=Nc1ccc(S(N)(=O)=O)cc1 | inconclusive: 20.6 µM [activator, single point] | –
O=C(Nc1cccc(Br)c1)c1ccc(CN2CCc3ccccc3C2)cc1 | active: 18.4 µM | –
Cc1ccc(-c2nnc(CSc3nnc(COc4ccccc4)n3-c3ccc(C)cc3)o2)cc1 | inconclusive: 18.4 µM [activator, single point] | –
COc1cccc(/C=N/NC(=O)C(=O)Nc2ccccc2OC(F)(F)C(F)F)c1O | inconclusive: 4.11 µM [activator, full curve] | –
CCC(=O)Nc1nonc1-c1nc2ccccc2n1Cc1ccccc1 | inactive | –
CS(=O)(=O)c1ccc(NCC2CCCO2)c([N+](=O)[O-])c1 (stereo not given) | inactive | –
C[C@@]12C(=O)Nc3ccc(Cl)cc3C(=O)N1[C@H]1c3cc(Cl)ccc3OC[C@@H]1[C@@H]2c1ccccc1 | inconclusive: 23.1 µM [activator, single point] | –
CCOC(=O)C(=CNc1cc(C(F)(F)F)ccc1N1CCOCC1)C(=O)OCC | inactive | –
O=C1CCCC/C1=C\Nc1ccc(O)cc1 | inconclusive: 29.1 µM [activator, single point] | –
Cc1ccc(SCCC(=O)Nc2ccccc2C(=O)N2CCOCC2)cc1 | inactive | –
CCOc1ccc(S(=O)(=O)NCCCN2CCOCC2)c2ccccc12 | inactive | –
CC1CCc2c(sc(NC(=O)c3noc4c3CCCC4)c2C(N)=O)C1 (stereo not given) | inconclusive: 6.51 µM [activator, partial curve] | –
CC(OC(=O)c1ccc2ccccc2c1)C(=O)N(C)Cc1ccccc1 (stereo not given) | inconclusive: 29.1 µM [activator, single point] | –
O=C(CN1CCc2ccccc2C1)Nc1cccc(S(=O)(=O)N2CCCC2)c1 | inconclusive: 20.6 µM [activator, single point] | –
Clc1ccc(CN2CCN(c3ncccn3)CC2)cc1Cl | inactive | –
CCCCCCCCCCn1ccc(=N)cc1 | active: 20.6 µM | –
O=C(c1cccc(S(=O)(=O)N2CCCC2)c1)N1CCN(c2ccccc2)CC1 | inconclusive: 29.1 µM [activator, single point] | –
Cc1cccc(OCCOC(=O)c2c(-c3ccccc3)noc2C)c1 | active: 8.2 µM | –
O=C(CN1C(=O)COc2ccc(S(=O)(=O)N3CCCC3)cc21)NCc1ccccn1 | inactive | –

No new results follow: 17 of the compounds above.
Structure (SMILES) | Potency | re-replication activation
O=C(Nc1cccc(Br)c1)c1ccc(CN2CCc3ccccc3C2)cc1 | active: 18.4 µM | –
Cc1ccc(-c2nnc(CSc3nnc(COc4ccccc4)n3-c3ccc(C)cc3)o2)cc1 | inconclusive: 18.4 µM [activator, single point] | –
COc1cccc(/C=N/NC(=O)C(=O)Nc2ccccc2OC(F)(F)C(F)F)c1O | inconclusive: 4.11 µM [activator, full curve] | –
CCC(=O)Nc1nonc1-c1nc2ccccc2n1Cc1ccccc1 | inactive | –
CS(=O)(=O)c1ccc(NCC2CCCO2)c([N+](=O)[O-])c1 (stereo not given) | inactive | –
C[C@@]12C(=O)Nc3ccc(Cl)cc3C(=O)N1[C@H]1c3cc(Cl)ccc3OC[C@@H]1[C@@H]2c1ccccc1 | inconclusive: 23.1 µM [activator, single point] | –
CCOC(=O)C(=CNc1cc(C(F)(F)F)ccc1N1CCOCC1)C(=O)OCC | inactive | –
O=C1CCCC/C1=C\Nc1ccc(O)cc1 | inconclusive: 29.1 µM [activator, single point] | –
Cc1ccc(SCCC(=O)Nc2ccccc2C(=O)N2CCOCC2)cc1 | inactive | –
CCOc1ccc(S(=O)(=O)NCCCN2CCOCC2)c2ccccc12 | inactive | –
CC1CCc2c(sc(NC(=O)c3noc4c3CCCC4)c2C(N)=O)C1 (stereo not given) | inconclusive: 6.51 µM [activator, partial curve] | –
CC(OC(=O)c1ccc2ccccc2c1)C(=O)N(C)Cc1ccccc1 (stereo not given) | inconclusive: 29.1 µM [activator, single point] | –
O=C(CN1CCc2ccccc2C1)Nc1cccc(S(=O)(=O)N2CCCC2)c1 | inconclusive: 20.6 µM [activator, single point] | –
Clc1ccc(CN2CCN(c3ncccn3)CC2)cc1Cl | inactive | –
CCCCCCCCCCn1ccc(=N)cc1 | active: 20.6 µM | –
O=C(c1cccc(S(=O)(=O)N2CCCC2)c1)N1CCN(c2ccccc2)CC1 | inconclusive: 29.1 µM [activator, single point] | –
Cc1cccc(OCCOC(=O)c2c(-c3ccccc3)noc2C)c1 | active: 8.2 µM | –

Continuation.

Structure (SMILES) | Potency | re-replication activation
COc1ccccc1CN1CCCCC1C(=O)O (stereo not given) | inconclusive: 6.51 µM [activator, single point] | –
CCn1nc(C)cc1C(=O)NC1CCCc2c1cnn2-c1ccc(C)c(C)c1 (stereo not given) | inconclusive: 20.6 µM [activator, single point] | –
Cc1ccccc1C(=O)Nc1ccc2c(c1)CCCN2C(=O)c1cccs1 | – | inconclusive: -32.1% [activator]
CC(=O)c1cccc(NC(=O)COC(=O)c2ccc(S(C)(=O)=O)c([N+](=O)[O-])c2)c1 | inconclusive: 18.4 µM [activator, single point] | –
COc1cccc(CNc2ccc(S(N)(=O)=O)cc2)c1OC | active: 18.4 µM | –
Cc1ccc2nc(-c3ccc(SCC(=O)O)nc3)[nH]c2c1 | inactive | –
CCCCn1c(NCc2ccc(N(C)C)cc2)nc2ccccc21 | inactive | –
CCc1cc(-c2n[nH]c(=S)n2-c2ccccc2C)cs1 | inconclusive: 23.1 µM [activator, single point] | –
CCN(CC(=O)Nc1c(F)cccc1F)C(=O)C1CCC1 | inconclusive: 25.9 µM [activator, single point] | –
COCC1CCN(Cc2cn(Cc3ccccc3)nc2-c2cc3ccccc3o2)CC1 | inconclusive: 29.1 µM [activator, single point] | –
COC(=O)c1ccc(COC(=O)C(NC(=O)Cc2ccccc2)C(C)C)cc1 (stereo not given) | inconclusive: 29.1 µM [activator, single point] | –
CC(C)S(=O)(=O)c1csc(NC(=O)Nc2cc(Cl)ccc2Cl)c1Cl | inactive | –
CCOC(=O)NNC(=O)CCn1c2c(c3ccccc31)CCCC2 | inactive | –
COc1ccc(/C=C/c2nc(S(=O)(=O)c3ccccc3)c(N(C)C)o2)cc1OC | inconclusive: 16.4 µM [activator, single point] | –
Nc1ccc(N=Nc2ccccc2O)c(N)c1 | inconclusive: 13 µM [activator, partial curve, poor fit] | –
CCC(=O)c1ccc(OCC(O)CNC2CCCC2)cc1 (stereo not given) | inconclusive: 16.4 µM [activator, single point] | –
CC(C)C1C(C#N)=C(N)Oc2n[nH]c(-c3ccc4ccccc4c3)c21 (stereo not given) | inconclusive: 9.2 µM [activator, partial curve, poor fit] | –
CC(CCc1ccc(O)cc1)NCCc1ccc(O)c(O)c1 (stereo not given) | inconclusive: 3.35 µM [activator, single point] and inconclusive: 11.6 µM [activator, single point] and inconclusive: 2.82 µM [activator, single point] | –
COc1ccc(C2NC(=S)NC3=C2CCc2cc(OC)ccc23)cc1 (stereo not given) | inconclusive: 29.1 µM [activator, single point] | –
O=C(Nc1cccc(Br)c1)c1cc2ccccc2o1 | inactive | –
Cc1nc(N2CCN(c3ccccn3)CC2)c2c(C)c(C(=O)Nc3c(C)cc(Br)cc3C)sc2n1 | inconclusive: 29.1 µM [activator, single point] | –
CC(C)(C)C(=O)NC(=S)Nc1cc(C(F)(F)F)ccc1N1CCOCC1 | inconclusive: 32.6 µM [activator, partial curve, poor fit] | –
C[C@H](CO)N1C[C@H](C)[C@@H](CN(C)S(C)(=O)=O)Oc2ccc(NS(=O)(=O)c3ccccc3)cc2C1=O | – | inconclusive: 98.4% [activator]
CCCS(=O)(=O)N1CCCC(C(=O)NCCc2cccc(C)c2)C1 (stereo not given) | inactive | –
CCn1c(C)nc2cc(S(=O)(=O)Nc3ccc(C)cc3)ccc21 | inactive | –

Structure (SMILES) | Potency | re-replication activation
O=C(NCC(=O)N1CCN(c2ccccc2O)CC1)c1ccc(Br)o1 | inactive | –
COc1ccc(C(=O)CN2C(=O)c3ccccc3S2(=O)=O)cc1Br | inactive | –
COc1ccccc1NC1=NC(c2ccc(Cl)cc2)N=C(N)N1 (stereo not given) | active: 20.6 µM | –
COc1ccc(OC)c(S(=O)(=O)N2CCC(C(=O)NC3CCCCC3)CC2)c1 | inactive | –
NS(=O)(=O)c1ccc(N2CCN(CCOc3ccc(Cl)cc3)CC2)nc1 | inconclusive: 11.6 µM [activator, single point] | –
Fc1ccccc1NC(=S)Nc1ccc(CN2CCOCC2)cc1 | inactive | –
CCOc1ccc(C(CCc2ccccc2)NC(=O)c2ccccc2)cc1OCC (stereo not given) | inactive | –
CCCOc1cccc(-c2nn(-c3ccccc3)cc2/C=C(\C#N)C(=O)NCCCn2ccnc2)c1 | inconclusive: 16.4 µM [activator, single point] | –
COc1ccccc1NC(=O)c1ccc(NC(=O)COC(=O)c2cncc(Br)c2)cc1 | inconclusive: 16.4 µM [activator, single point] | –
CC(CC(=O)Nc1cc([N+](=O)[O-])ccc1Cl)c1ccccc1 (stereo not given) | inactive | –
CCOC(=O)c1cnc2ccc(OCC)cc2c1N1CCN(C)CC1 | inactive | –
C=CCc1c(C)nc2c(-c3ccccc3)cnn2c1N1CCOCC1 | inactive | –
COc1ccc(-c2cc3nc(CCl)[nH]c(=O)c3s2)cc1 | inconclusive: 29.1 µM [activator, single point] | –
Cc1ccc(-n2cc(CNC(C)Cn3cncn3)c(-c3ccc(F)cc3)n2)cc1 (stereo not given) | inactive | –
COC1=C(Nc2ccc(O)cc2)C(=O)c2ccccc2C1=O | inconclusive: 29.1 µM [activator, partial curve, poor fit] | –
CCNC(=S)NNC(=O)c1cc(-c2ccc(OCC)cc2)nc2ccccc12 | inconclusive: 35.5 µM [activator, single point] | –
Cc1ccsc1/C=C(\C#N)C(=O)NCc1ccco1 | inconclusive: 29.1 µM [activator, single point] | –
COc1ccc(-c2csc(-c3ccccc3)n2)c(OC)c1 | inconclusive: 1.3 µM [activator, full curve, poor fit] | –
Cn1c(=O)c2ccccc2n(Cc2cccc(F)c2)c1=O | inactive | –
Cc1cc(N2CCN(c3nc(-c4ccccc4)cs3)CC2)c2ccccc2n1 | inactive | –
C/C(N)=C(/C#N)C(=O)CSc1nc2ccccc2c(=O)n1-c1ccccc1C | inactive | –
Cc1cccc(C)c1NC(=O)CN1CCN(C(=O)CNC(=O)c2ccc(N3CCCC3=O)cc2)CC1 | inactive | –
CCCc1cc(=O)oc2cc(OCC(=O)Nc3ccc(S(N)(=O)=O)cc3)ccc12 | inconclusive: 7.31 µM [activator, partial curve, poor fit] | –
O=C(N/N=C/c1ccc(N2CCOCC2)o1)c1cccc(F)c1 | inconclusive: 23.1 µM [activator, partial curve, poor fit] | –
C=CCNc1oc(-c2cccc3ccccc23)nc1C#N | inconclusive: 18.4 µM [activator, single point] | –
